# Counter-ions that a name gives are not always drawn. Some of the results follow. Repeats in this data set agree poorly, so a single value says little.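 ReNCell VM, a human fetal ventral-midbrain neural progenitor line, was differentiated without mitogens. Blinded raters scored images stained for doublecortin (early neurons) or tyrosine hydroxylase (dopaminergic neurons) against untreated wells (0 = no change). Scores were averaged across repeats and both raters, and compounds averaging 2 or more were selected as hits for retesting.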
# Assays:
# ReNCell VM [1] = assay: neuronal differentiation score (DCX+ cell fraction vs untreated, manual image score) (score (-3 to 3)); higher = more neuronal differentiation; settings: 2 uM, 2 weeks
# ReNCell VM [2] = assay: dopaminergic neuron differentiation score (TH+ cell fraction vs untreated, manual image score) (score (0 to 3)); higher = more TH+ dopaminergic neuron differentiation; settings: 2 uM, 4 weeks, BDNF 10 ng/ml + GDNF 10 ng/ml
smiles,measurement,setting,value
CN(C)CC/C=C1/c2ccccc2Sc2ccc(Cl)cc21,neuronal differentiation score,ReNCell VM [1]; library: Spectrum,inactive: 0
same,dopaminergic neuron differentiation score,ReNCell VM [2]; library: Spectrum,inactive: 0
COC(=O)C1=CO[C@@H](O[C@@H]2O[C@H](CO)[C@@H](O)[C@H](O)[C@H]2O)[C@H]2[C@@H]1C(=O)C[C@@H]2C,neuronal differentiation score,ReNCell VM [1]; library: Spectrum,inactive: 1
same,dopaminergic neuron differentiation score,ReNCell VM [2]; library: Spectrum,inactive: 0
O=C(c1ccc(F)cc1)C1CCN(CCn2c(=S)[nH]c3ccccc3c2=O)CC1 [Altanserin hydrochloride],neuronal differentiation score,ReNCell VM [1]; library: Tocriscreen,inactive: 0
same,dopaminergic neuron differentiation score,ReNCell VM [2]; library: Tocriscreen,inactive: 0
COC1=C[C@@H](C)[C@@H]2C[C@H]3OC(=O)C[C@H]4C(C)=C(OC)C(=O)[C@H]([C@@]2(C)C1=O)[C@@]34C,neuronal differentiation score,ReNCell VM [1]; library: Spectrum,inactive: 0
same,dopaminergic neuron differentiation score,ReNCell VM [2]; library: Spectrum,inactive: 0
COC(=O)C(Cc1ccc(OCCn2c(=O)sc3cc(C(=O)c4ccccc4)ccc32)cc1)C(=O)OC,neuronal differentiation score,ReNCell VM [1]; library: Tocriscreen,inactive: 0
same,dopaminergic neuron differentiation score,ReNCell VM [2]; library: Tocriscreen,inactive: 1
O=C(NCCCN1CCOCC1)c1ccc(Cl)cc1,neuronal differentiation score,ReNCell VM [1]; library: Spectrum,inactive: 0
same,dopaminergic neuron differentiation score,ReNCell VM [2]; library: Spectrum,inactive: 1
CC1(C)O[C@@H]2C[C@H]3[C@@H]4CCC5=CC(=O)CC[C@]5(C)[C@@]4(F)[C@@H](O)C[C@]3(C)[C@]2(C(=O)CCl)O1 [Halcinonide],neuronal differentiation score,ReNCell VM [1]; library: Prestwick,inactive: 0
same,dopaminergic neuron differentiation score,ReNCell VM [2]; library: Prestwick,inactive: 0
Cn1nnnc1SCC1=C(C(=O)O)N2C(=O)[C@@H](NC(=O)[C@H](O)c3ccccc3)[C@H]2SC1,neuronal differentiation score,ReNCell VM [1]; library: Spectrum,inactive: 1
same,dopaminergic neuron differentiation score,ReNCell VM [2]; library: Spectrum,inactive: 0
CC(=O)N1CCN(C)CC1 [1-Acetyl-4-methylpiperazine hydrochloride],neuronal differentiation score,ReNCell VM [1]; library: Tocriscreen,inactive: 0
same,dopaminergic neuron differentiation score,ReNCell VM [2]; library: Tocriscreen,inactive: 0
C[C@H]1C[C@@H]2[C@H]([C@@H](O)C[C@@]3(C)[C@H]2CC[C@]3(O)C(=O)CO)[C@@]2(C)C=CC(=O)C=C12,neuronal differentiation score,ReNCell VM [1]; library: Spectrum,inactive: 0
same,dopaminergic neuron differentiation score,ReNCell VM [2]; library: Spectrum,inactive: 0
CCCCc1oc2ccccc2c1C(=O)c1cc(I)c(OCCN(CC)CC)c(I)c1,neuronal differentiation score,ReNCell VM [1]; library: Spectrum,inactive: 0
same,dopaminergic neuron differentiation score,ReNCell VM [2]; library: Spectrum,inactive: 0
CC1(C)O[C@@H]2C[C@H]3[C@@H]4C[C@H](F)C5=CC(=O)CC[C@]5(C)[C@H]4[C@@H](O)C[C@]3(C)[C@]2(C(=O)CO)O1,neuronal differentiation score,ReNCell VM [1]; library: Spectrum,inactive: 0
same,dopaminergic neuron differentiation score,ReNCell VM [2]; library: Spectrum,inactive: 1
NCCNC(=O)c1ccc(Cl)cc1 [Ro 16-6491 hydrochloride],neuronal differentiation score,ReNCell VM [1]; library: LOPAC,inactive: 0
same,dopaminergic neuron differentiation score,ReNCell VM [2]; library: LOPAC,inactive: 0
O=c1c(O)c(-c2ccc(O)c(O)c2)oc2cc(O)cc(O)c12 [Quercetine dihydrate],neuronal differentiation score,ReNCell VM [1]; library: Phytochemical,inactive: 0
same,dopaminergic neuron differentiation score,ReNCell VM [2]; library: Phytochemical,inactive: 0
Nc1ccc(S(=O)(=O)NC(=O)c2ccccc2)cc1,neuronal differentiation score,ReNCell VM [1]; library: Spectrum,inactive: 0
same,dopaminergic neuron differentiation score,ReNCell VM [2]; library: Spectrum,inactive: 1
CC(C)=CCn1cnc2c1c(=O)n(C)c(=O)n2C [7-prenyl-theophylline],neuronal differentiation score,ReNCell VM [1]; library: Natural,inactive: 0
same,dopaminergic neuron differentiation score,ReNCell VM [2]; library: Natural,inactive: 0
C[C@@H]1C(=O)C[C@H]2C(C)(C)CCC[C@]2(C)[C@@]1(O)CCc1ccoc1 [hispanolone],neuronal differentiation score,ReNCell VM [1]; library: Natural,inactive: 0
same,dopaminergic neuron differentiation score,ReNCell VM [2]; library: Natural,inactive: 0
c1ccc2[nH]c(-c3cscn3)nc2c1,neuronal differentiation score,ReNCell VM [1]; library: Spectrum,inactive: 0
same,dopaminergic neuron differentiation score,ReNCell VM [2]; library: Spectrum,inactive: 0
COc1ccc(C(=O)Nc2sc3c(c2C(N)=O)CCCC3)cc1OC,neuronal differentiation score,ReNCell VM [1]; library: Tocriscreen,inactive: 0
same,dopaminergic neuron differentiation score,ReNCell VM [2]; library: Tocriscreen,inactive: 0

# Some of the entries so far, bar-delimited:
smiles | measurement | setting | value
CN(C)CC/C=C1/c2ccccc2Sc2ccc(Cl)cc21 | neuronal differentiation score | ReNCell VM [1]; library: Spectrum | inactive: 0
COC1=C[C@@H](C)[C@@H]2C[C@H]3OC(=O)C[C@H]4C(C)=C(OC)C(=O)[C@H]([C@@]2(C)C1=O)[C@@]34C | dopaminergic neuron differentiation score | ReNCell VM [2]; library: Spectrum | inactive: 0
c1ccc2[nH]c(-c3cscn3)nc2c1 | neuronal differentiation score | ReNCell VM [1]; library: Spectrum | inactive: 0

# Source: the supplement of paper PMC4635364
